Assay results taken from article PMC8754651.
Results are given in words; binding and its absence hold for the method and conditions named.

Protein sequences, listed by entry. Tags and fused reporters are not part of them. Residues count along the entry.
UniProt P32780, residues 1-108: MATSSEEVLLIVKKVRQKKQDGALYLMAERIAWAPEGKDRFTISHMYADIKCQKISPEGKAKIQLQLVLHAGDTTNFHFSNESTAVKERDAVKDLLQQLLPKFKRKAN
UniProt P20435, residues 11-34: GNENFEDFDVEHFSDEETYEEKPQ

Molecular target: human TFIIH p62 PH domain (PH-D) (residues 1–108) (human) (UniProt P32780)
Test: ITC; 100∼300 μM RPB6/Rpb6 peptide in the syringe titrated into 10–30 μM p62 PH-D in the cell; 20 mM potassium phosphate (pH 6.8) with or without 25 mM NaCl, 20°C; VP-ITC; both purified

yeast (Saccharomyces cerevisiae) Rpb6 (residues 11–34), NTT peptide (from UniProt P20435 11-34)
binding: no binding (tested: 100∼300 μM RPB6/Rpb6 in the syringe)
